# Results of single-concentration screens

The chains behind the UniProt entries cited, without tags or fusion partners. Residues count along the entry.
UniProt Q8IDJ8, 1-583: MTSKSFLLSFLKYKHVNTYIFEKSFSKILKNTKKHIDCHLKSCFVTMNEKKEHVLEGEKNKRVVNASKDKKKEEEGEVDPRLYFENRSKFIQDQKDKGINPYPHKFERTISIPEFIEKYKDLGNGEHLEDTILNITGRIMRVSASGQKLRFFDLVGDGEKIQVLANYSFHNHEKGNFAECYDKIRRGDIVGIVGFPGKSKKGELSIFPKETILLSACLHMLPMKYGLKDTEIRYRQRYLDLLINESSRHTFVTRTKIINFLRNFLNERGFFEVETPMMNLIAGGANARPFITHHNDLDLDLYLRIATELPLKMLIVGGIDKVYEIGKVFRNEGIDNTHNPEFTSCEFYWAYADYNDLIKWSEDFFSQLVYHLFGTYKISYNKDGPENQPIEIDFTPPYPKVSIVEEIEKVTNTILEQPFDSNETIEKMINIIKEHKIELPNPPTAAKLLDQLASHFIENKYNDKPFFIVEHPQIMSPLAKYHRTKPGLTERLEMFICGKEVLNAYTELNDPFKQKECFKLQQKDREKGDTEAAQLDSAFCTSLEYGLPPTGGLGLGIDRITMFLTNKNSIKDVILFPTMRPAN
UniProt P9WFT3, whole entry: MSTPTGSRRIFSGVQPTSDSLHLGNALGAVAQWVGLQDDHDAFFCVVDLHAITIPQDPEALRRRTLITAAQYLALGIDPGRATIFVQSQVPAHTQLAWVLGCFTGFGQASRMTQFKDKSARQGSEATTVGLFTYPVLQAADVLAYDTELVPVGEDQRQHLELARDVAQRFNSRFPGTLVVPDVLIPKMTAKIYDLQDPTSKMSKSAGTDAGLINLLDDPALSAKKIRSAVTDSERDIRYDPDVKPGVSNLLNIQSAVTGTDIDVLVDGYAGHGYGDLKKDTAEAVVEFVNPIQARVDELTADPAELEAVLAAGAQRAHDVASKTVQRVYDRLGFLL
UniProt P9WPC5, whole entry: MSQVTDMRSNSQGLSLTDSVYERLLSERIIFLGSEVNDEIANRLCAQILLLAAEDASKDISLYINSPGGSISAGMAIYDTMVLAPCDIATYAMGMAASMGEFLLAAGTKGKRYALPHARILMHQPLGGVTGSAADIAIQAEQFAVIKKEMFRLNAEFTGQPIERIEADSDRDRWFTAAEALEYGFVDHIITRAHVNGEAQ
UniProt P9WPC3, whole entry partner: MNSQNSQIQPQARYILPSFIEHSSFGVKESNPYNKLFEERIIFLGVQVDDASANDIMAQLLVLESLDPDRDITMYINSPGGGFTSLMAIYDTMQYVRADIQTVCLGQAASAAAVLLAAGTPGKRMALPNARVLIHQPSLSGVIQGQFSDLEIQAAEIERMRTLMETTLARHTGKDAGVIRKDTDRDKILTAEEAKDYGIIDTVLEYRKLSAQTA

A: 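Enzyme assay of the cytosolic lysyl-tRNA synthetase in 384-well plates, read by luminescence. Target: Lysine-tRNA ligase, Plasmodium falciparum 3D7 (UniProt Q8IDJ8). Concentration: 30 µM. Higher reads as stronger inhibition, judged from the few compounds that gave an IC50. Of about 69,000 compounds tested this way, about 49 (0.071%) reached 50% or more in at least one test.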
B: 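Enzyme assay of tryptophanyl-tRNA synthetase; the read-out is not stated. Target: Tryptophan-tRNA ligase, Mycobacterium tuberculosis (UniProt P9WFT3). Tested at 10 µM. Higher most likely means stronger inhibition; the record gives no direction and few retests gave an IC50. Size under these conditions: about 65,000 compounds, about 64 of them at 50% or above in at least one test.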
C: 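Protease assay of ClpP1P2, read by the AMC dye that it sets free. Target: ClpP1P2, Mycobacterium tuberculosis (UniProt P9WPC5 and UniProt P9WPC3). Tested at 50 µM. Direction is inferred from only a few compounds that gave an IC50; most scored high, so higher reads as stronger inhibition. Most other retested compounds had strongly negative values. About 69,000 compounds were tested under these conditions; 0.015% (about 10) showed 50% or more at least once.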

Values are the deposited “Percent Effect”, in %.
The controls that fix the scale are not given in the record; negative values are as filed.
Compounds were drawn at random from those tested, without regard to their results.
A dash means the value is not listed here; it may have been measured.

Compound,A,B,C
N#Cc1ccccc1C(=O)N1C[C@H](CO)C[C@H](CN2CCCC2)C1,1.561,0.08353,-0.3501
Cc1ccc(CNc2cc(N3CCCC3CO)ncn2)s1 (stereo not drawn),0.2278,-2.215,-16.88
CCCn1nc2c(cc1=O)CN(c1ncnc3sccc13)CC2,0.7918,1.14,-2.036
O=c1c2cn[nH]c2nc(SCCN2CCOCC2)n1-c1ccccc1,5.053,-0.08157,-0.539
CC(NC(=O)Nc1nccs1)C(=O)NC1CCCC1 (stereo not drawn),2.755,3.205,4.086
Nc1nccnc1C1CN(C(=O)c2ccc3c(c2)OCO3)CCO1 (stereo not drawn),0.2995,2.377,0.1672
Cc1ccc(CNC(=O)NCc2nccn2C)c(OC(C)(C)C)c1,-6.776,2.352,-4.719
CCN(CC)S(=O)(=O)N1CCCC(c2nccn2Cc2ccncc2)C1 (stereo not drawn),-3.405,4.932,-0.6196
CC(C)c1noc(CCCC(=O)N2CCN(Cc3ccncc3)CC2)n1,12.79,4.327,15.09
CN(C)c1nc2c(c(N3CCc4c(c(CO)nn4C)C3)n1)CCNC2,-6.038,-4.002,9.584
O=C(c1ccc(-n2ccnc2)cc1)N1CCCC1,0.8363,3.444,2.912
Cc1c[nH]c(CN(C)C(=O)C(C)(C)NC(=O)c2cccs2)n1,2.35,0.719,-9.554
CN1CCC(N[C@@H]2CO[C@H](CNC(=O)Nc3ccccc3)[C@H]2O)CC1,3.859,2.049,-11.44
COc1cccc(OC)c1-c1ccnc2cc(CC(=O)N(C)C)nn12,1.889,-,-6.312
Cc1cc(CN2CCc3cncnc3C2)on1,7.293,4.231,3.867
CCc1nc(CN(C)Cc2nc(-c3ccccc3Cl)oc2C)no1,4.054,-0.9909,-9.938
COCCn1nc(C(=O)N(C)Cc2cnn(C)c2)ccc1=O,5.444,7.945,-2.466
O=S(=O)(CCN1CCN(c2ccccc2O)CC1)c1ccc(Br)cc1,3.462,-0.9025,2.016
Cc1ccc2c(c1)OC(C)CN2C(=O)CCc1cscn1 (stereo not drawn),4.325,-3.259,6.75
Cc1cc(CNc2ccccc2Cl)no1,1.319,0.8021,-7.838
CCOC(=O)N1CCN(C(=O)c2sc(-c3ccncc3)nc2C)CC1,0.7812,-0.618,-2.722
O=C(Nc1cccnc1-n1cc(Br)cn1)C1CCCC1,2.74,-0.07003,1.31
CNC(=O)c1nc(COc2ccc3c(c2)OCO3)no1,-6.32,-4.355,-20.31
Cc1ccsc1CN(c1nc(CCN)nc2ccccc12)C1CC1,0.4651,0.3846,-14.02
Cc1cn([C@H]2CCNC[C@]2(C)O)c(=O)[nH]c1=O,1.898,-4.023,-26.33
CN(CCCNC(=O)c1ccccc1F)CC(F)(F)F,-0.8623,-0.8922,-10.31
COc1cc2c(cc1OC)C(=O)C(Sc1nnnn1C)C2 (stereo not drawn),-2.197,3.819,4.632
CC(C)(C)CC(=O)NS(=O)(=O)c1ccc(F)cc1C(F)(F)F,5.643,3.351,-8.686
O=C(C1CC1)N1CCN(Cc2coc(-c3ccc(Cl)cc3)n2)CC1,6.805,4.396,3.668
CC(=O)NCC(Cc1cccc(F)c1)n1cccc1 (stereo not drawn),0.3508,0.5319,5.875
Cc1ccc(CN(CCCN(C)C)Cc2cnc(C)n2C)o1,3.707,-2.196,-4.894
Cc1ncc(CN(C)CCO)c2cc(C(=O)c3ccc(Br)cc3)oc12,1.367,1.961,-16.52
Cc1nn(CC(=O)N(C)Cc2nncn2C(C)C)c(=O)c2ccccc12,3.384,1.223,1.962
CCOc1ccc(CN2CC[C@](C)(O)C(C)(C)C2)cn1,3.072,-3.306,4.481
Cc1nc2cc(-c3nccn3C)nn2c(N2CCCC2)c1C,0.2724,-5.548,-0.3245
COCc1cnc2n1CCN(Cc1cccnc1)C2C (stereo not drawn),-2.421,2.413,-3.215
O=C(Nc1nnc(N2CCCCC2)[nH]1)c1cccs1,-2.338,-2.086,-1.497
CS(=O)(=O)C1(CNCc2cccc(-n3cccn3)c2)CCOCC1,-2.052,2.234,7.597
Cc1nn(C)c(C)c1C(=O)N1CCOCC1CC(=O)c1ccco1 (stereo not drawn),2.844,-4.979,0.333
CCN(CCc1nc2cc(C)ccc2[nH]1)C(=O)[C@@H](N)CCSC,-1.67,-3.569,-6.333

The last 4 entries again:

With O=C(Nc1nnc(N2CCCCC2)[nH]1)c1cccs1 the screen gave A: -2.338%; B: -2.086%; C: -1.497%.
With CS(=O)(=O)C1(CNCc2cccc(-n3cccn3)c2)CCOCC1 the screen gave A: -2.052%; B: 2.234%; C: 7.597%.
With Cc1nn(C)c(C)c1C(=O)N1CCOCC1CC(=O)c1ccco1 (stereo not drawn) the screen gave A: 2.844%; B: -4.979%; C: 0.333%.
With CCN(CCc1nc2cc(C)ccc2[nH]1)C(=O)[C@@H](N)CCSC the screen gave A: -1.67%; B: -3.569%; C: -6.333%.

Source: ChEMBL document CHEMBL3988442, “University of Dundee, Small-Polar-MMV Screening Library” (2021).